From PMC6908673, “Tuning the in vitro sensing and signaling properties of cyanobacterial PII protein by mutation of key residues” (Scientific Reports, 2019)
These are yes or no findings as the source states them, for the method shown. Some entries that bind do so weakly or less than the wild type. Where a sequence is shown, tags or fusion partners need not be part of it.

Columns and labels:
[1] = molecular target: T1, PipX (PII-interacting protein X), His6-tagged (UniProt Q7X386); assay: SPR; indirect assay: 500 nM His6-PipX pre-incubated with Strep-tagged PII (500 nM in Fig. 4, 100 nM in Fig. 5), mixture injected on Ni-NTA chip; without effector molecules; 25 °C, HBS buffer; both purified
T1 sequence: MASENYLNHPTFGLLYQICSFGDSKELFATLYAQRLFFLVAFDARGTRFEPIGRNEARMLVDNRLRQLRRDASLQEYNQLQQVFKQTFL

[2] = molecular target: T1, PipX (PII-interacting protein X), His6-tagged; assay: SPR; indirect assay: 500 nM His6-PipX pre-incubated with 100 nM Strep-tagged PII, mixture injected on Ni-NTA chip; with 1 mM ATP and 1 mM 2-OG; 25 °C, HBS buffer; both purified
[3] = molecular target: T1, PipX (PII-interacting protein X), His6-tagged; assay: SPR; indirect assay: 500 nM His6-PipX pre-incubated with Strep-tagged PII, mixture injected on Ni-NTA chip; with ADP (3 mM in Fig. 4, 1 mM in Fig. 5); 25 °C, HBS buffer; both purified
[4] = molecular target: T1, PipX (PII-interacting protein X), His6-tagged; assay: SPR; indirect assay: 500 nM His6-PipX pre-incubated with Strep-tagged PII, mixture injected on Ni-NTA chip; with 1 mM ATP; 25 °C, HBS buffer; both purified

Measured: binding

B1: PII (I86N) variant from S. elongatus, Strep-tagged (protein, UniProt P0A3F4 1-112)
chain: MKKIEAIIRPFKLDEVKIALVNAGIVGMTVSEVRGFGRQKGQTERYRGSEYTVEFLQKLKLEIVVEDAQVDTVIDKIVAAARTGENGDGKIFVSPVDQTIRIRTGEKNADAI
binds: [1] | [2] | [3] | [4]
